Counter-ions that a name gives are not always drawn. Like-named read-outs stand apart in the source and are kept apart here. In all, about 3,300 compounds went through this assay and about 95 (3%) showed an effect of 50% or more. This is one part of the list.

This test deals with HCoV-229E. The arrangement: species or system Huh-7; HTS, protection from HCoV-229E induced cell death, luminescent cell viability (CellCounting-Lite 2.0), inhibition rate. The conditions noted are these: 24 h post infection, 1 h compound pre-incubation, 10 µM, inhibitor.

For the molecule `O=C(O)C(O)O` [2,2-Dihydroxyacetic acid], the “229E Inhibition rate” value worked out at 10.1%.

On to `O=c1cc(-c2ccc(O[C@@H]3O[C@H](CO)[C@@H](O)[C@H](O)[C@H]3O)cc2)oc2cc(O)c([C@@H]3O[C@H](CO)[C@@H](O)[C@H](O)[C@H]3O[C@@H]3OC[C@H](O)[C@H](O)[C@H]3O)c(O)c12` [Vaccarin], for which the “229E Inhibition rate” value is reported as 33.9%.

With `O=C(/C=C/c1ccc(O)c(O)c1)OCCc1ccccc1` [Caffeic acid phenethyl ester], the “229E Inhibition rate” value amounted to 16.9%.

Take `CC(C)=CCC[C@]1(C)CC[C@]2(C)[C@H]3CC[C@@]4(C)[C@@H](CCC(=O)[C@@H]4C)[C@]3(C)CC[C@@]2(C)C1` [Shionone]: the “229E Inhibition rate” value was 20.5%.

For the molecule `COc1ccc([C@@H]2CC(=O)c3c(O)cc(O[C@@H]4O[C@H](CO)[C@@H](O)[C@H](O)[C@H]4O[C@@H]4O[C@@H](C)[C@H](O)[C@@H](O)[C@H]4O)cc3O2)cc1O` [Neohesperidin], the “229E Inhibition rate” value came to 36.2%.

Consider `Cn1ccc(=O)n(C)c1=O` [1,3-Dimethyluracil], for which the “229E Inhibition rate” value is 19.8%.

With `COC(=O)C1=CO[C@@H](O[C@@H]2O[C@H](CO)[C@@H](O)[C@H](O)[C@H]2O)[C@@H]2[C@@]3(C)O[C@H]3[C@@H](O)[C@]12O` [Sesamoside], the “229E Inhibition rate” value was found to be 0%.

Consider `CC(C)=CCC[C@](C)(O)[C@@H]1CC=C(C)CC1` [Levomenol], for which the “229E Inhibition rate” value (229E Inhibition rate, 24 h) came to 18.7%.

On to `COc1cc(O)ccc1/C=C/C(=O)c1ccc(O)cc1` [Echinatin], for which the “229E Inhibition rate” value was 0%.

For the molecule `O=C1c2ccccc2C(=O)c2c1ccc(O)c2O` [Alizarin], the “229E Inhibition rate” value worked out at 25.7%.

Regarding `C=C1[C@H]2C[C@@]3([C@@H]1O)[C@@H](CC2=O)[C@]12[C@@H]4C[C@H]3[C@H]1N(CC)C[C@]4(C)CC[C@@H]2O` [Songorine], the “229E Inhibition rate” value was found to be 6.3%.

As for `COC(=O)/C=C/C(C)=C\C=C\C(C)=C\C=C\C=C(C)\C=C\C=C(C)\C=C\C(=O)O` [Bixin], the “229E Inhibition rate” value came out at 3.1%.

As for `COc1cc(O)c2c(c1)O[C@H](c1cc(O)cc(O)c1)CC2=O` [Blumeatin], the “229E Inhibition rate” value worked out at 0%.

Take `COc1ccc2c(c1)[nH]c1c(C)nccc12` [Harmine (hydrochloride)]: the “229E Inhibition rate” value (229E Inhibition rate, 24 h) was found to be 16.8%.

With `CO[C@]1(CC[C@@H](C)CO[C@@H]2O[C@H](CO)[C@@H](O)[C@H](O)[C@H]2O)O[C@H]2C[C@H]3[C@@H]4CC=C5C[C@@H](O[C@@H]6O[C@H](CO)[C@@H](O[C@@H]7O[C@@H](C)[C@H](O)[C@@H](O)[C@H]7O)[C@H](O)[C@H]6O[C@@H]6O[C@@H](C)[C@H](O)[C@@H](O)[C@H]6O)CC[C@]5(C)[C@H]4CC[C@]3(C)[C@H]2[C@@H]1C` [Methyl protodioscin], the “229E Inhibition rate” value amounted to 8.3%.

For the molecule `OC[C@H]1O[C@H](O)[C@H](O)[C@@H](O)[C@@H]1O` [alpha-D-glucose], the “229E Inhibition rate” value is recorded as 0%.

In the case of `O=C(O)C(O)Cc1ccccc1` (racemic) [DL-3-Phenyllactic acid], the “229E Inhibition rate” value is reported as 22.4%.

`O=C(O)C(CO)c1ccccc1` (stereo not drawn) [Tropic acid]: the “229E Inhibition rate” value was found to be 0%.

Consider `CSSSC` [Dimethyl trisulfide], for which the “229E Inhibition rate” value worked out at 0%.

As to `C[C@H](O)[C@@H](O)[C@@H](O)[C@H](O)CO` [L-Fucitol], the “229E Inhibition rate” value worked out at 12.8%.

Turning to `CC(C)=CCc1c(O)ccc2ccc(=O)oc12` [Osthenol], the “229E Inhibition rate” value is listed as 14.9%.

`C[C@@H]1O[C@@H](O[C@H]2[C@H](Oc3cc(O)c4c(=O)cc(-c5ccc(O)cc5)oc4c3)O[C@H](CO)[C@@H](O)[C@@H]2O)[C@H](O)[C@H](O)[C@H]1O` [Rhoifolin]: the “229E Inhibition rate” value worked out at 21%.

`CCCCCC[C@@H](O)C/C=C\CCCCCCCC(=O)O` [Ricinoleic acid]: the “229E Inhibition rate” value is 14.7%.

Consider `COc1cc(-c2oc3cc(O)cc(O)c3c(=O)c2O[C@@H]2O[C@H](CO)[C@@H](O)[C@H](O)[C@H]2O[C@@H]2O[C@@H](C)[C@H](O)[C@@H](O)[C@H]2O)ccc1O` [Isorhamnetin-3-O-neohespeidoside], for which the “229E Inhibition rate” value was 0%.

As to `O=c1c(O[C@@H]2O[C@H](CO)[C@@H](O)[C@H](O)[C@H]2O)c(-c2ccc(O)cc2)oc2cc(O)cc(O)c12` [Astragalin], the “229E Inhibition rate” value amounted to 34.6%.

As to `O=C(O[C@H]1[C@H](Oc2c(-c3ccc(O)c(O)c3)oc3cc(O)cc(O)c3c2=O)O[C@H](CO)[C@H](O)[C@@H]1O)c1cc(O)c(O)c(O)c1` [2"-O-Galloylhyperin], the “229E Inhibition rate” value came to 10%.

As for `O=C(CCc1ccccc1)C[C@@H](O)/C=C/c1ccccc1` [(5R,6E)-5-Hydroxy-1,7-diphenyl-6-hepten-3-one], the “229E Inhibition rate” value was 37.1%.

As for `O=C(O)CNC(=O)Cc1ccccc1` [2-(2-Phenylacetamido)acetic acid], the “229E Inhibition rate” value stood at 20.4%.

Turning to `COc1cc(-c2cc(=O)c3c(O)cc(O)cc3o2)cc(OC)c1O` [Tricin], the “229E Inhibition rate” value was determined as 25.9%.

On to `C=C1C(=O)O[C@@H]2/C=C(\C)[C@@H](OC(C)=O)C/C=C(\COC(C)=O)C[C@@H](OC(=O)/C(C)=C/CO)[C@@H]12` [Eupalinolide B], for which the “229E Inhibition rate” value (229E Inhibition rate, 24 h) amounted to 34.9%.

On to `CO[C@@H]1O[C@H](CO)[C@H](O)[C@H](O)[C@H]1O` [Methyl β-D-Galactopyranoside], for which the “229E Inhibition rate” value stood at 9.6%.

For the molecule `COC(=O)C1=CC[C@@]23CC[C@@H]([C@@](C)(/C=C/C=C(\C)C(=O)O)OC2=O)[C@@]3(OC(C)=O)CC1` [Pseudolaric Acid B], the “229E Inhibition rate” value is 16.3%.

For the molecule `CN1C(=O)/C(=C2/C(=O)Nc3ccccc32)c2ccccc21` [Meisoindigo], the “229E Inhibition rate” value was 20%.

For `CC1(C)[C@H](O)CC[C@@]2(C)[C@@H]3CC[C@](C)([C@@H](O)CO[C@@H]4O[C@H](CO)[C@@H](O)[C@H](O)[C@H]4O)C=C3CC[C@H]12` [Darutoside], the “229E Inhibition rate” value worked out at 8.8%.

With `C=C1C[C@@]23CC[C@H]4[C@@](C)(CCC[C@@]4(C)C(=O)O)[C@@H]2CC[C@]1(O[C@@H]1O[C@H](CO)[C@@H](O)[C@H](O[C@@H]2O[C@H](CO)[C@@H](O)[C@H](O)[C@H]2O)[C@H]1O[C@@H]1O[C@H](CO)[C@@H](O)[C@H](O)[C@H]1O)C3` [Rebaudioside B], the “229E Inhibition rate” value is recorded as 36.9%.

For the molecule `Cc1nc(C)c(C)nc1C` [Ligustrazine], under “229E Inhibition rate, 24 h”, the “229E Inhibition rate” value turned out to be 16%.

In the case of `Oc1ccc(C2COc3cc(O)ccc3C2)cc1` (racemic) [(±)-Equol], the “229E Inhibition rate” value came to 11%.

As to `C[C@H](CC(=O)C[C@](C)(O)[C@@H]1CC(=O)[C@@]2(C)C3=C(C(=O)C[C@]12C)[C@@]1(C)CC[C@H](O)C(C)(C)[C@@H]1C[C@@H]3O)C(=O)O` [Ganoderic acid I], the “229E Inhibition rate” value was found to be 10.4%.

As to `C[C@H](CCC(=O)NCCS(=O)(=O)O)[C@H]1CC[C@H]2[C@@H]3[C@H](O)C[C@@H]4C[C@H](O)CC[C@]4(C)[C@H]3CC[C@]12C` [Taurochenodeoxycholic acid], the “229E Inhibition rate” value (229E Inhibition rate, 24 h) stood at 11%.

As to `Cc1cnc(C)c(C)n1` [2,3,5-Trimethylpyrazine], the “229E Inhibition rate” value is 6.9%.

Regarding `CC(=O)c1ccc(C)cc1O` [2'-Hydroxy-4'-methylacetophenone], the “229E Inhibition rate” value came to 4.8%.

Take `c1ccc2c(c1)CCO2` [Coumaran]: the “229E Inhibition rate” value came to 17.6%.

As for `Cc1ccccc1C=O` [2-Methylbenzaldehyde], the “229E Inhibition rate” value stood at 0%.

For `COc1cc(O)c(CC=C(C)C)c2c1C(=O)C[C@@H](c1ccc(O)cc1)O2` [(2S)-Isoxanthohumol], the “229E Inhibition rate” value is given as 35.3%.

In the case of `O=C(OC1O[C@@H]2COC(=O)c3cc(O)c(O)c(O)c3-c3c(cc(O)c(O)c3O)C(=O)O[C@H]2[C@H](OC(=O)c2cc(O)c(O)c(O)c2)[C@H]1OC(=O)c1cc(O)c(O)c(O)c1)c1cc(O)c(O)c(O)c1` (stereo partly drawn) [Tellimagrandin II], the “229E Inhibition rate” value is recorded as 17.3%.

In the case of `O=P(O)(O)OC[C@H](O)CO` [sn-Glycerol 3-phosphate], the “229E Inhibition rate” value is given as 9%.

With `Cc1cnc(C)cn1` [2,5-Dimethylpyrazine], the “229E Inhibition rate” value was 5.1%.

Turning to `O=C1CCC[C@@H]2[C@H]3CCCN4CCC[C@H](CN12)[C@@H]34` [Sophoridine], the “229E Inhibition rate” value was 0%.

On to `COc1c2c(cc3oc(CO[C@@H]4O[C@H](CO)[C@@H](O)[C@H](O)[C@H]4O)cc(=O)c13)O[C@H](C(C)(C)O)C2` [Prim-O-glucosylcimifugin], for which the “229E Inhibition rate” value is 0%.

Consider `CC(=O)O[C@]1(C(C)=O)CC[C@H]2[C@@H]3C[C@H](C)C4=CC(=O)CC[C@]4(C)[C@H]3CC[C@@]21C` [Medroxyprogesterone acetate], for which the “229E Inhibition rate” value came out at 15.8%.

Turning to `N[C@@H](Cc1ccccc1)C(=O)O` [L-Phenylalanine], the “229E Inhibition rate” value worked out at 10%.

For the molecule `O=c1cc(-c2ccc(O)cc2)oc2c([C@@H]3O[C@H](CO)[C@@H](O)[C@H](O)[C@H]3O)c(O)c([C@@H]3OC[C@H](O)[C@H](O)[C@H]3O)c(O)c12` [Isoschaftoside], the “229E Inhibition rate” value was 20.6%.

With `NCC(=O)NCC(=O)O` [Glycylglycine], the “229E Inhibition rate” value turned out to be 13.5%.

As for `C/C=C/c1ccc(OC)cc1` [Anethole], the “229E Inhibition rate” value (229E Inhibition rate, 24 h) turned out to be 16.8%.

As to `O=C(O)/C=C/c1ccc(O)cc1` [p-Coumaric acid], the “229E Inhibition rate” value stood at 42.5%.

Take `COC1=C(OC)C(=O)C(C/C=C(\C)CC/C=C(\C)CC/C=C(\C)CC/C=C(\C)CC/C=C(\C)CC/C=C(\C)CC/C=C(\C)CC/C=C(\C)CCC=C(C)C)=C(C)C1=O` [Coenzyme Q9]: the “229E Inhibition rate” value stood at 8.7%.

In the case of `C=C(C)[C@H](CC=C(C)C)Cc1c(O)cc(OC)c2c1O[C@H](c1ccc(O)cc1O)[C@@H](O)C2=O` [Kushenol I], the “229E Inhibition rate” value was found to be 6.5%.

With `COc1cc(O)c2c(=O)cc(-c3ccc(OC)c(OC)c3)oc2c1` [7,3',4'-Tri-O-methylluteolin], the “229E Inhibition rate” value is reported as 8%.

For `C=C[C@H]1[C@H](O[C@@H]2O[C@H](CO)[C@@H](O)[C@H](O)[C@H]2O)OC=C(C(=O)OC)[C@H]1CC(=O)O` [Secoxyloganin], the “229E Inhibition rate” value is 44.3%.

Turning to `C/C(=C/C(=O)O)C(=O)O` [Citraconic acid], the “229E Inhibition rate” value amounted to 34.6%.

(Values after publication PMC12431657, “Discovery and mechanistic insights of dibenzoylmethane as a broad spectrum inhibitor of coronavirus” (PLOS Pathogens, 2025).)
